Our source for the binding values is paper PMC7352286, “The Heterooligomerization of Human Small Heat Shock Proteins Is Controlled by Conserved Motif Located in the N-Terminal Domain” (International Journal of Molecular Sciences, 2020).

Chains of the proteins cited; added tags and fusions are not shown.
UniProt P04792: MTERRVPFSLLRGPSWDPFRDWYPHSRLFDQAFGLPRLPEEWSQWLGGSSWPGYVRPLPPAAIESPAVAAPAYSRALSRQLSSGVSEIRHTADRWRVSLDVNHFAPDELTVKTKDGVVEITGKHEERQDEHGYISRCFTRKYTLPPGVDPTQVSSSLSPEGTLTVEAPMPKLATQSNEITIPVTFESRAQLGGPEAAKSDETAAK

Positions count from the first letter of the chain named. No constants are given. Whether binding was seen depends on the method and setting.

In test [1] the target is T1, HspB8 R29A (human) (UniProt Q9UJY1).
T1 sequence: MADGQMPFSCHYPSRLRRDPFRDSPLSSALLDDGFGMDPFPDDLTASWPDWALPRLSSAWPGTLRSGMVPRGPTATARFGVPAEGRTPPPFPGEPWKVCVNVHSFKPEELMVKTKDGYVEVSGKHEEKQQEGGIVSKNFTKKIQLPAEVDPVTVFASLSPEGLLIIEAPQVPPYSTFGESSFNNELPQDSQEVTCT
Description: SEC; equimolar mixture (30–40 µM each), reduced, preincubated 1 h at 42 °C in buffer B (20 mM Tris-acetate, 150 mM NaCl, 0.1 mM EDTA, 15 mM mercaptoethanol); Superdex 200 HR 10/30; fractions on SDS gels; correlation coefficient and molar ratio from band intensities; both purified.

Test [2] deals with T2, HspB8 Δ28–32 (human) (UniProt Q9UJY1).
T2 sequence: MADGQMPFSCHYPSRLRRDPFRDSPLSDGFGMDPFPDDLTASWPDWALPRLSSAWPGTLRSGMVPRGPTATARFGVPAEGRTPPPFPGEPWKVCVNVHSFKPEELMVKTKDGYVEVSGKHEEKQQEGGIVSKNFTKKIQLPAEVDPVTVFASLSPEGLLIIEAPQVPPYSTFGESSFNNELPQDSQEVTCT
Described as above.

Test [3] deals with T3, HspB5 Δ21–25 (human) (UniProt P02511).
T3 sequence: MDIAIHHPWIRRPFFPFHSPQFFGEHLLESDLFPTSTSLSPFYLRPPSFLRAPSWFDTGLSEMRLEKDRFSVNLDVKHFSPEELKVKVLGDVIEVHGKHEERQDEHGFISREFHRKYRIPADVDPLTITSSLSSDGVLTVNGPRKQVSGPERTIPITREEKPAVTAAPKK
Kind of test: condition: only preincubated at 4 °C (without heating); 30–40 µM each; ion-exchange chromatography; equimolar mixture (30–40 µM each), reduced, preincubated 1 h at 4 °C in buffer D (20 mM phosphate pH 6.8, 0.1 mM PMSF, 15 mM mercaptoethanol); DEAE HiTrap, gradient 0–500 mM NaCl; fractions on SDS gels; correlation coefficient and molar ratio from band intensities; both purified.

The target in test [4] is T4, wild-type human small heat shock protein HspB5 (human) (UniProt P02511).
T4 sequence: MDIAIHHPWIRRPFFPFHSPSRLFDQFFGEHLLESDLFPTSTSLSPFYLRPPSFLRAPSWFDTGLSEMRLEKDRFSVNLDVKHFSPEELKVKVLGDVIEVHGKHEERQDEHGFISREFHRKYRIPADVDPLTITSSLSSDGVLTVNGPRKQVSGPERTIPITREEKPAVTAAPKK
Described as above.

Test [5] deals with T5, HspB5 R22A (human) (UniProt P02511).
T5 sequence: T4 sequence with R22A
Described as above.

Test [6] concerns the target T6, wild-type human small heat shock protein HspB6 (human) (UniProt O14558).
T6 sequence: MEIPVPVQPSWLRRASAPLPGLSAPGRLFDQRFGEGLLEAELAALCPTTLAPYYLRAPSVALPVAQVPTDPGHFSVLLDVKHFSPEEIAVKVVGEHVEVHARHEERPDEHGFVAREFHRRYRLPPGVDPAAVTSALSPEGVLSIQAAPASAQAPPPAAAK
Description: condition: only preincubated at 4 °C (without heating); 30–40 µM each; SEC; equimolar mixture (30–40 µM each), reduced, preincubated 1 h at 4 °C in buffer B (20 mM Tris-acetate, 150 mM NaCl, 0.1 mM EDTA, 15 mM mercaptoethanol); Superdex 200 HR 10/30; fractions on SDS gels; correlation coefficient and molar ratio from band intensities; both purified.

For test [7], the target named is T7, HspB6 R27A (human, UniProt O14558 1-160, R27A).
T7 construct: also called R/A HspB6; R/A mutant of HspB6; source: E. coli BL21(DE3) pLysS, purified (ammonium sulfate, HiTrap Phenyl-Sepharose, Superdex 200)
T7 sequence (looked up): T6 sequence with R27A
Described as above.

The target in test [8] is T8, HspB6 Δ26–30 (human, UniProt O14558 1-160, Δ26–30).
T8 construct: also called Δ HspB6; Δ mutant of HspB6; source: E. coli BL21(DE3) pLysS, purified (ammonium sulfate, HiTrap Phenyl-Sepharose, Superdex 200)
T8 sequence (looked up): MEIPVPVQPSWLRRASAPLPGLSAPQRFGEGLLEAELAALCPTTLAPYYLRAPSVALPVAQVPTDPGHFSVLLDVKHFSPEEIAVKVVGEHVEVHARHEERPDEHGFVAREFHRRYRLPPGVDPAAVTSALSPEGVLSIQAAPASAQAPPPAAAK
Described as above.

The target in test [9] is T1, HspB8 R29A (human). Kind of test: SEC; equimolar mixture (30–40 µM each), reduced, preincubated 1 h at 4 °C in buffer B (20 mM Tris-acetate, 150 mM NaCl, 0.1 mM EDTA, 15 mM mercaptoethanol); Superdex 200 HR 10/30; fractions on SDS gels; correlation coefficient and molar ratio from band intensities; both purified. Background: In gel filtration, larger molecules generally elute earlier.

Test [10] concerns the target T2, HspB8 Δ28–32 (human). The test is described as above.

In the case of “wild-type human small heat shock protein HspB1 (from UniProt P04792 1-205)”, the binding result is on record as “no binding (tested: 30–40 µM each)” in test [1]; “no binding (tested: 30–40 µM each)” in [2]; “no binding” in test [3]; “no binding” in [4]; “no binding” in [5]; “no binding” in test [6]. Besides, the binding entry in test [7] was “no binding”; in [8], “no binding”; in test [9], “no binding (tested: 30–40 µM each)”; in [10], “no binding (tested: 30–40 µM each)”.
